This passage reports AC50 results from PubChem BioAssay AID445 (National Center for Advancing Translational Sciences (NCATS), 2006).

Structures are written as SMILES. Some of the results follow. The main result of the screen is listed elsewhere. These columns were measured beside it and carry no call. The list favours compounds with an active or inconclusive main result. The note in brackets gives the kind of curve behind each potency; many fits are weak.

This experiment can be described thus: IkB Signaling. The conditions noted are these: ABC-DLBCL IkBa-CBG/CBR dual luciferase ratio (green luciferase fused to IkBa over red control in OCI-Ly3 lymphoma cells), 4 h. In short, it runs like this: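 In this assay, an IκBα–CBG68 fusion accumulates when IKK-driven degradation is blocked; native CBR normalizes for cell number. OCI-Ly3 cells were treated 4 h with compound and doxycycline, then green and red light read after Chroma-Glo addition.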

The mark [1] stands for this setting: measured here: control luc red channel.
The mark [2] stands for this setting: measured here: IkB-luc green channel.

What is called AC50 is the concentration giving half of the maximal activity seen. On to `CCN(CC)C(=O)c1ccc(NC(=O)c2ccc(-c3nn(C)c(=O)c4ccccc34)cc2)cc1`, for which, under setting [1], the half-maximal activity concentration (AC50) was 31.6 µM [falling, single point].

On to `Cc1ccc(-c2nc(CN3C(=O)CN=C(c4ccccc4)c4ccccc43)c(C)o2)cc1`, for which the half-maximal activity concentration (AC50) under setting [1] was 15.8 µM [falling, single point].

For `COc1ccccc1C1SCC(=O)Nc2c1c(C)nn2-c1cccc(C)c1` (stereo not given), the AC50 under setting [1] is 25.1 µM [falling, single point].

Regarding `COc1cccc(NC(=O)c2cccn(Cc3ccccc3C)c2=O)c1`, the half-maximal activity concentration (AC50) under setting [1] is 20 µM [falling, single point].

For the compound `Cc1ccc(Cn2cccc(C(=O)Nc3ccc4c(c3)OCCO4)c2=O)cc1`, under setting [1], the AC50 is 25.1 µM [falling, partial curve].

Regarding `CCOc1ccc2nc(NC(=O)c3cccn(Cc4ccccc4Cl)c3=O)sc2c1`, under setting [1], the AC50 was 3.98 µM [rising, partial curve, poor fit].

On to `O=C1CS[C@@H](c2ccccc2Cl)c2cc(Cl)ccc2N1`, for which the AC50 under setting [1] is 39.8 µM [falling, single point].

For the compound `Cc1ccccc1CN1C(=O)C(C)N=C(c2ccccc2)c2ccccc21` (stereo not given), the concentration at half-maximal activity (AC50) under setting [1] is 15.8 µM [falling, partial curve].

For the compound `CCOC(=O)C(O)(c1ccc(N)c(OC)c1)C(F)(F)F` (stereo not given), the AC50 under setting [1] was 3.98 µM [falling, full curve].

For the compound `Cc1ccc(C(=O)Nc2ccccc2)cc1S(=O)(=O)N1CCCC1`, the concentration at half-maximal activity (AC50) under setting [1] is 31.6 µM [falling, single point].

With `CC(C)(O)/C=C\C(=O)[C@](C)(O)[C@H]1[C@H](O)C[C@]2(C)[C@@H]3CC=C4[C@@H](C=C(O)C(=O)C4(C)C)[C@]3(C)C(=O)C[C@@]12C`, the AC50 under setting [2] is 1.58 µM [rising, partial curve] and the concentration at half-maximal activity (AC50) under setting [1] was 0.501 µM [falling, full curve].

With `Cn1cc(C(=O)C(=O)N[C@H]2CN3CCC2CC3)c2ccccc21`, under setting [1], the half-maximal activity concentration (AC50) is 1.58 µM [falling, full curve].

With `Cc1ccc(OCC(=O)N2CCN(CCc3ccncc3)CC2)cc1`, the AC50 under setting [1] is 2 µM [falling, single point].

For the compound `COc1ccc(OCC(=O)N2CCN(Cc3ccc(SC)cc3)CC2)cc1`, the AC50 under setting [1] was 15.8 µM [falling, partial curve].

Regarding `COc1ccc2c(c[n+](C)c3c4cc5c(cc4ccc23)OCO5)c1OC`, the AC50 by setting is: under setting [2], 7.94 µM [falling, full curve]; under setting [1], 6.31 µM [falling, full curve].

Consider `c1ccc2c(c1)[I+]c1ccccc1-2`, for which the concentration at half-maximal activity (AC50) under setting [2] is 3.98 µM [rising, full curve] and the concentration at half-maximal activity (AC50) under setting [1] was 15.8 µM [falling, partial curve].

Regarding `O=c1oc2ccccc2c(O)c1Cc1c(O)c2ccccc2oc1=O`, under setting [1], the AC50 is 0.2 µM [falling, full curve].
